Values of other authors, collected in patent publication US20140288073A1, “Method of Treating Gastrointestinal Stromal Tumors” (NOVARTIS AG, priority 2011, published 2014).
At least one structure is not confirmed: it was looked up by name or label, or the drawing left a doubt.

Test system: GIST
Settings: advanced unresectable GIST; cited from earlier work

CCN(CC)CCNC(=O)c1c(C)[nH]c(/C=C2\C(=O)Nc3ccc(F)cc32)c1C [Sunitinib]
Efficacy in patients who have progressed on imatinib therapy: demonstrated efficacy
